The other results are listed elsewhere or left out. The main result of the screen is listed elsewhere. These columns were measured beside it and carry no call. Most of these compounds were active or inconclusive in the main read-out, so they are no random draw. The note in brackets gives the kind of curve behind each potency; many fits are weak.
Assay: qHTS Assay to Find Inhibitors of Chronic Active B-Cell Receptor Signaling
Conditions: ABC-DLBCL IkBa-CBG/CBR reporter, luminescence ratio (green luciferase fused to IkBa over red control in TMD8 lymphoma cells), 4 h
Method in brief: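 TMD8 human ABC-DLBCL cells with doxycycline-inducible IκBα–green luciferase fusion and unfused red luciferase, in 0.5% FBS medium; compounds up to 46 uM, 4 h at 37C. Green/red luminescence ratio, filter-overlap corrected, fitted to concentration-response curves.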

[1] = measured here: CBR red luminescence, cell number
[2] = measured here: IkBa-CBG green luminescence

## Cn1c(CN2CCCC2)nc2cc(NC(=O)c3cccs3)ccc21
[1]
  AC50: 16.4 µM [falling, single point]

## O=C(NCc1ccco1)c1ccc(N2CCCCC2)c([N+](=O)[O-])c1
[1]
  AC50: 2.59 µM [rising, partial curve, poor fit]

## CCOc1ccc(C(=O)/C=C/c2cn(CN3CCN(C)CC3)c3ccccc23)cc1
[1]
  AC50: 35.5 µM [falling, single point]

## CN(C)CCNC(=S)Nc1ccc(-c2nc3ccccc3[nH]2)cc1
[1]
  AC50: 10 µM [falling, partial curve]
[2]
  AC50: 5.01 µM [rising, partial curve, poor fit]

## O=C(NCCCc1ccccc1)c1ccccc1
[1]
  AC50: 7.08 µM [rising, partial curve, poor fit]

## COC(=O)c1sc(NC(=O)CSc2nncs2)c(C(=O)OC)c1C
[1]
  AC50: 35.5 µM [falling, partial curve, poor fit]

## COc1ccc2c(C)cc(Sc3nnnn3-c3ccccc3)nc2c1
[1]
  AC50: 29.1 µM [falling, single point]

## COc1cccc(N2CCN(C(=O)c3ccc(CS(=O)c4ccccc4C)o3)CC2)c1 (stereo not drawn)
[1]
  AC50: 35.5 µM [rising, single point]
[2]
  AC50: 11.2 µM [falling, partial curve]

## Cc1ccc(/C=N/NC(=O)COc2ccccc2-c2ccccc2)cc1
[1]
  AC50: 2.59 µM [rising, full curve]
[2]
  AC50: 0.461 µM [falling, full curve]

## CNC(=S)Nc1ccc([N+](=O)[O-])cc1
[1]
  AC50: 5.01 µM [rising, partial curve]

## CCOc1ccc(N(CC)C(=O)Cc2c(C(=O)O)n(C)c3ccccc23)cc1
[1]
  AC50: 5.62 µM [falling, single point]

## CCN(CC)S(=O)(=O)c1ccc(C(=O)NCCCN=C2NS(=O)(=O)c3ccccc32)cc1
[1]
  AC50: 29.1 µM [rising, single point]

## Cc1cc(-c2cc(-c3ccccc3)on2)nc(NC2CCCC2)n1
[1]
  AC50: 20 µM [rising, single point]

## COC(=O)CN1C(c2ccccc2)=Nc2ccc(Cl)cc2C1c1ccccc1 (stereo not drawn)
[1]
  AC50: 15.8 µM [falling, partial curve]
[2]
  AC50: 17.8 µM [rising, partial curve, poor fit]

## Cc1cc(C)c(N=Cc2c(O)c3ccccc3oc2=O)c(C)c1
[1]
  AC50: 2.82 µM [falling, full curve]

## CC(O)Cc1nsc(NC(=O)c2cccs2)n1 (stereo not drawn)
[1]
  AC50: 14.6 µM [falling, partial curve, poor fit]

## Cc1cc(C)nc(N2CCC(C(=O)NCCc3ccc(Cl)cc3)CC2)n1
[1]
  AC50: 3.55 µM [rising, full curve, poor fit]

## Nc1c(C(=O)c2ccccc2)oc2ccc([N+](=O)[O-])cc12
[1]
  AC50: 12.6 µM [falling, partial curve]

## CCC(C)n1c(SCc2ccccc2)nc2ccsc2c1=O (stereo not drawn)
[1]
  AC50: 11.6 µM [rising, partial curve]

## O=C(O)c1ccc(N/N=C/c2cccc(F)c2)cc1
[1]
  AC50: 0.0291 µM [falling, full curve]

## CN(c1ccccc1)S(=O)(=O)c1cccc(C(=O)NCCCN2CCCC2=O)c1
[1]
  AC50: 3.66 µM [rising, single point]

## CCOC(=O)c1nnn(-c2nonc2-n2cccc2)c1CN1CCC(C(=O)OCC)CC1
[1]
  AC50: 35.5 µM [falling, single point]

## CC(=O)Nc1ccc(S(=O)(=O)NCCc2ccc(S(N)(=O)=O)cc2)cc1
[1]
  AC50: 0.092 µM [falling, full curve, poor fit]

## C=C1C(=O)O[C@H]2[C@H]1[C@@H](O)CC(=C)[C@@H]1CC(=O)[C@@H](C)[C@H]21
[1]
  AC50: 10 µM [falling, partial curve, poor fit]

## COc1ccc(Cc2n[nH]c(=S)n2NC(=O)Nc2ccc(Cl)c(Cl)c2)cc1
[1]
  AC50: 35.5 µM [falling, single point]

## O=C(O)c1ccc(N/N=C/c2cn(-c3ccccc3)nc2-c2cccs2)cc1
[1]
  AC50: 15.8 µM [falling, partial curve, poor fit]

## Cc1cccn2c(=O)c3cc(C(=O)NCC4CCCO4)c(=N)n(Cc4cccnc4)c3nc12 (stereo not drawn)
[1]
  AC50: 0.164 µM [falling, full curve, poor fit]

## COc1ccc(C)cc1NC(=O)CCCN1C(=O)CCC1=O
[1]
  AC50: 25.9 µM [rising, single point]

## CCc1nc2ccc(C(=O)O)cc2nc1CC
[1]
  AC50: 2.31 µM [falling, full curve]

## COc1ccc(NC(=O)c2nc(S(=O)(=O)Cc3cccc(C)c3)ncc2Cl)c(OC)c1
[1]
  AC50: 3.98 µM [falling, full curve]

## COCC(C)N1CC(O)=C(c2nc(-c3ccc(Cl)cc3)cs2)C1=N (stereo not drawn)
[1]
  AC50: 3.16 µM [rising, full curve, poor fit]

## N=C1S/C(=C\c2ccco2)C(=O)N1c1ccc2c(c1)OCO2
[1]
  AC50: 35.5 µM [falling, single point]

## C[C@H](N)C(=O)NC[C@H]1O[C@@H](n2cnc3c(N)ncnc32)[C@H](O)[C@@H]1O
[1]
  AC50: 1.16 µM [rising, full curve, poor fit]

## O=C(Nc1nnc(SCc2ccccc2F)s1)C1=COCCO1
[1]
  AC50: 0.794 µM [rising, full curve, poor fit]

## CCn1cc(C(=O)N2CCCC2)c(=O)c2cc(S(=O)(=O)N3CC(C)CC(C)C3)ccc21 (stereo not drawn)
[1]
  AC50: 28.2 µM [rising, single point]

## CCc1ccc(/C=C/C(=O)c2c(C)cc(C)[nH]c2=O)cc1
[1]
  AC50: 16.4 µM [falling, single point]

## O=C(Nc1ccc2c(c1)OCCO2)c1cc2ccccc2o1
[1]
  AC50: 8.91 µM [falling, partial curve, poor fit]

## CCNC(=S)N/N=C/c1cccc(C)c1
[2]
  AC50: 20.6 µM [falling, single point]

## COc1ccc(NC(=S)Nc2cc(C)cc(C)n2)cc1OC
[1]
  AC50: 2.91 µM [rising, full curve, poor fit]

## Fc1cccc(NC(=S)NCc2ccccc2Cl)c1
[1]
  AC50: 0.891 µM [rising, partial curve]

## COc1ccc(-c2nc(C#N)c(NCc3cccnc3)o2)cc1OC
[2]
  AC50: 14.1 µM [falling, partial curve, poor fit]

## COC(=O)c1ccc(CNC(=O)c2ccc(OC)c(S(=O)(=O)NC3CCCC3)c2)cc1
[1]
  AC50: 32.6 µM [falling, single point]

## COc1ccccc1CCC(=O)N(C)CC(=O)Nc1ccc(Cl)c(C(F)(F)F)c1
[1]
  AC50: 31.6 µM [falling, single point]

## CSc1ccccc1NC(=O)c1cc(CC(C)C)on1
[1]
  AC50: 0.731 µM [falling, partial curve, poor fit]

## N#Cc1cccc(S(=O)(=O)Nc2c(NC3CCCCC3)c3ccccc3oc2=O)c1
[1]
  AC50: 14.1 µM [falling, partial curve]

## CCc1ccc(C(C(=O)NC2CCCCC2)N(C(=O)c2ccccn2)c2cccnc2)cc1 (stereo not drawn)
[1]
  AC50: 35.5 µM [rising, single point]

## O=C(Nc1nnc(-c2cccnc2)o1)c1cccc([N+](=O)[O-])c1
[1]
  AC50: 6.31 µM [falling, full curve, poor fit]

## COc1cc(C(=O)Nc2ccc3ccccc3c2)cc(OC)c1OC
[1]
  AC50: 35.5 µM [rising, single point]
[2]
  AC50: 25.1 µM [falling, single point]

## NC(=O)NC(=O)COC(=O)c1cccnc1Nc1ccccc1F
[1]
  AC50: 5.62 µM [rising, single point]

## COc1ccc2cc3c(N)nn(C(=O)c4ccccc4Cl)c3nc2c1
[1]
  AC50: 0.355 µM [falling, full curve, poor fit]

## CCCc1ccc(C(=O)NNC(=O)c2ccc(Br)cc2)cc1
[1]
  AC50: 5.17 µM [rising, full curve]

## O=C(CC1Nc2ccccc2NC1=O)NC1CCCCC1 (stereo not drawn)
[1]
  AC50: 35.5 µM [falling, single point]

## COC(=O)c1ccc(NC(=O)c2ccc3c(c2)OCO3)cc1
[1]
  AC50: 0.146 µM [falling, full curve, poor fit]

## CC(NC(=O)c1ccccc1Cl)C(=O)O (stereo not drawn)
[1]
  AC50: 2.59 µM [falling, partial curve, poor fit]

## N#Cc1ccsc1NC(=O)COc1ccc(-c2nnco2)cc1
[1]
  AC50: 14.1 µM [falling, single point]

## CCCNC(=O)CNC(=S)N(Cc1cc(OC)c(OC)c(OC)c1)C1CCCC1
[1]
  AC50: 29.1 µM [rising, single point]

## CC1CC(=O)N(CC(=O)Nc2ccc3c(c2)OCO3)c2ccccc2S1 (stereo not drawn)
[1]
  AC50: 3.98 µM [falling, single point]

## CC(=O)Oc1ccc(-c2cccc(C(=O)NCCO)c2)cc1
[1]
  AC50: 35.5 µM [falling, single point]

## CCCOc1ccc2nc(C)c(CCC)c(SC(=N)N)c2c1
[1]
  AC50: 8.91 µM [rising, partial curve, poor fit]

## O=C(CNC(=O)N1CC(=O)Nc2ccccc21)Nc1cc(Cl)ccc1Cl
[1]
  AC50: 3.98 µM [falling, partial curve, poor fit]

## COCCCNc1nc(N)c([N+](=O)[O-])c(NCc2ccccc2)n1
[1]
  AC50: 20 µM [rising, single point]

## O=C(COC(=O)c1cccc(NS(=O)(=O)c2ccc(F)c(F)c2)c1)NC(=O)NC1CCCC1
[1]
  AC50: 23.1 µM [falling, single point]

## Cc1ccc(C)c(C(=O)COc2ccccc2[N+](=O)[O-])c1
[1]
  AC50: 29.1 µM [falling, single point]
